Test results as given in US20220168403A1, “SUBCUTANEOUS TELOMERASE INHIBITOR COMPOSITIONS AND METHODS FOR USING SAME” (Geron Corporation, priority 2020, published 2022).
The name of at least one read-out is uncertain.

Assay: Bioavailability of imetelstat sodium in rats via subcutaneous and intravenous routes (plasma LC/MS/MS, noncompartmental PK)
Type: in vivo, Sprague-Dawley rats
Conditions: subcutaneous route, conclusion over both experiments
Experimental: 4 male, Sprague-Dawley rats (approximately 250 g-260 g) were dosed intravenously (IV volume 37.5 μL; 30 mg/kg) and 4 male, Sprague-Dawley rats (approximately 250 g-260 g) were dosed subcutaneously (SC volume 113 μL; 90 mg/kg) with imetelstat sodium. Imetelstat sodium is a 5′ palmitoylated 13-mer thiophosphoramidate oligonucleotide composed of the sequence 5′-TAGGGTTAGACAA-3′. Imetelstat sodium was dissolved in water immediately before dosing.
Blood was collected from each of the rats at time points of 0.083 hours (˜5 minutes), 0.25 hours (15 minutes), 1 hour, 2 hours, 4 hours, 8 hours and at 24 hours. A volume of […] of whole blood was collected, yielding about 700 μL to 1000 μL of plasma. Blood was collected through a secondary catheter in IV dosed rats (different from the one used for IV dosing).
Blood samples were collected in EDTA tubes and centrifuged immediately after collection. Collected plasma samples were transferred to a separate vial. Plasma concentration of imetelstat sodium was analyzed by LC/MS/MS.
The plasma concentrations of imetelstat sodium that were analyzed over a 24 hour period are depicted in FIG. 1. The plasma concentrations of imetelstat sodium were analyzed by a noncompartmental PK analysis. The subcutaneous (s.c.) bioavailability was calculated based on the following equation: F=(AUC(s.c.)/Dose(s.c.))/(AUC(i.v.)/Dose(i.v.))×100%.

## CCCCCCCCCCCCCCCC(=O)NCC(O)COP(=O)([S-])OC[C@H]1O[C@@H](n2cc(C)c(=O)[nH]c2=O)CC1NP(=O)([S-])OC[C@H]1O[C@@H](n2cnc3c(N)ncnc32)CC1NP(=O)([S-])OC[C@H]1O[C@@H](n2cnc3c(=O)[nH]c(N)nc32)CC1NP(=O)([S-])OC[C@H]1O[C@@H](n2cnc3c(=O)[nH]c(N)nc32)CC1NP(=O)([S-])OC[C@H]1O[C@@H](n2cnc3c(=O)[nH]c(N)nc32)CC1NP(=O)([S-])OC[C@H]1O[C@@H](n2cc(C)c(=O)[nH]c2=O)CC1NP(=O)([S-])OC[C@H]1O[C@@H](n2cc(C)c(=O)[nH]c2=O)CC1NP(=O)([S-])OC[C@H]1O[C@@H](n2cnc3c(N)ncnc32)CC1NP(=O)([S-])OC[C@H]1O[C@@H](n2cnc3c(=O)[nH]c(N)nc32)CC1NP(=O)([S-])OC[C@H]1O[C@@H](n2cnc3c(N)ncnc32)CC1NP(=O)([S-])OC[C@H]1O[C@@H](n2ccc(N)nc2=O)CC1NP(=O)([S-])OC[C@H]1O[C@@H](n2cnc3c(N)ncnc32)CC1NP(=O)([S-])OC[C@H]1O[C@@H](n2cnc3c(N)ncnc32)CC1N.[Na+].[Na+].[Na+].[Na+].[Na+].[Na+].[Na+].[Na+].[Na+].[Na+].[Na+].[Na+].[Na+] (stereo partly shown) [imetelstat sodium, 5′ palmitoylated 13-mer thiophosphoramidate oligonucleotide composed of the sequence 5′-TAGGGTTAGACAA-3′]
  bioavailability compared to IV administration: 80-95%
